{
  "source": "paper PMC11417211",
  "binders": {"B1": {"name": "interalpha-trypsin heavy chain H4 (ITIH4) of bovine serum (protein, UniProt Q3T052 28-916)", "chain": "QKVQNDIDIYSLTVDSKVSSRFAHTVITSRVVNKADAVREATFQMELPKKAFITNFSMVIDGVTYPGNIKEKAAAQEQYSAAVARGESAGLVRATGRKTEQFQVSVSVAPAAKVTFELVYEELLARHLGAYELLLKVRPQQLVKHLQMDIHIFEPQGISFLETESTFMTNKLAEALTTSQNKTKAHVRFKPTLSQQQKYPEKQDTVIDGSFIVRYDVDRPLSGGSIQIENGYFVHYFAPDSLSTIPKNVIFVIDKSGSMMGRKIKQTREALIKILDDLSPHDQFDLISFSSEATTWKPLLVPASTENVNEAKSYATGIQAQGGTNINDAMLMAVQLLEKANQEELLPEGSITLIILLTDGDPTVGETNPLNIQKNVRKAINGQHSLFCLGFGFDVSYAFLEKMALENGGLARRIYEDSDSALQLQDFYQEVANPLMTSVAFEYPSNAVESVTQDTFRVFFKGSELVVAGKLREQSPDVLLAQIRGQLHRENITYMMMSHVAEQEEMFRSPKYIFHSFIERLWAYLTIQQLLEQMVSALDAEKQALEARALSLSLSYSFVTPLTSMVITKPEGQEQSQVAEKPVEDESRGSRVYLGPMRFGHSVGDRTSRKPGGGLKLLNGTPLFGPPGPPAAASPFHRMTSRLVLPELMSPLAPASAPSPTSGPGGASHDTDFRIKGTTPTALPFAPVQAPSVILPLPGQSVDRLCVDLRRPQELVNLLSDPDQGVEVTGHFETAKARFSWIEVTFENPQVQIHASPEHVVMTRNRRNSAYKWKETLYSVMPGLKVTMDKEGLLLLSRPDRVTIGLLFWDGPGKGLRLLLQNTDRFSSHVSGTLGQFYQDVLWGPLDTADDSKRTLKVQGRDYSATRELKLDYQESPPGKEISCWSVEL"}},
  "molecular_target": "Pichia pastoris expressed HAMpin-1 (pHAMpin-1) (Hyalomma anatolicum)",
  "test": "affinity purification with mass spectrometry; 96-well plate coated with 1 μg/well pHAMpin-1; 10% bovine serum in PBS, 30 min, 37 °C; eluted with 0.2 M glycine pH 2.3; LC-MS/MS; proteins from BSA wells subtracted; only the target purified",
  "note": "Results are given in words; binding and its absence hold for the method and conditions named. Binding seen in cells or lysates may run through a third protein. Here binding means that the protein was enriched with, or labelled near, the bait; the list need not be complete.",
  "data": [
    {"binder": "B1", "values": [
      {"measurement": "binding", "result": "binds"}
    ]}
  ]
}
